PubChem BioAssay AID1671195 | Yale University, 2021

Aim: 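Genes whose knockdown alters LDL uptake in liver cancer cells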 (primary screen)
Cells: human Huh7 hepatoma cells
Reagents: siRNA pool against human genes, 18 nM
Timing: about 2 to 2.5 days of knockdown, then 8 h LDL uptake
Conditions: DiI-labelled LDL at 30 µg/ml for 8 h, in lipoprotein-deficient serum medium
Read-out: 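Per-cell DiI-LDL intensity by automated imaging; well means scaled to the plate median and given as a robust z-score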
Reading the numbers: robust z-score: higher = more LDL uptake after knockdown
Rule for the call: 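Active when two or more replicates show a robust z-score above 2 or below -2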
Here is a random part of about 22,000 reagents. About 1,510 of them (6.9%) count as active. 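Active includes knockdowns raising or lowering LDL uptake; positive z-scores mean more uptake, negative mean less.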 Unmarked entries are inactive. The numbers tell different reagents against one gene apart.

no.	target	reagent no.	robust z-score, replicate 1	robust z-score, replicate 2	robust z-score, replicate 3
1	PRPF3	1	-0.152	-0.661	-0.658
2	TMEM212	1	-0.849	-0.553	-0.785
3	LOXL3	1	0.593	1.82	0.861
4	LOC400662 (retired record)	1	0.436	-0.0972	-0.013
5	HMCN2	1	0.202	0.618	0.475
6	CCDC71	1	-0.131	0.312	0.518
7	SLC25A10	1	0.324	0.224	0.662
8	SUOX	1	-0.168	1.17	0.0455
9	GHRL	1	1.21	1.16	0.987
10	ZNF575	1	-2 (active)	-2.6	-2.74
11	NDST2	1	-0.161	-0.578	0.0375
12	LOC441799 (retired record)	1	-0.57	-0.606	-0.962
13	SERPINI1	1	-0.687	0.0803	-0.821
14	WDTC1	1	0.758	0.821	1.03
15	GATB	1	0.431	-0.0532	0.278
16	LATS1	1	0.502	2.2	0.99
17	BMI1	1	-2	-1.79	-1.72
18	ETFBKMT	1	-0.194	0.0468	-0.268
19	MAP3K9	1	-2.76 (active)	-2.67	-2.81
20	ESPL1	1	1.72	1.41	0.717
21	ADAMTS10	1	-1.66	-1.83	-1.08
22	GPRC5B	1	0.0548	-0.566	0.0203
23	HEATR4	1	1.68	1.81	1.44
24	RPL6P31	1	-1.55	-1.59	-1.45
25	RFXANK	1	0.0087	0.0563	-0.424
26	PLCH2	1	1.47	0.36	-0.0483

The list goes on (5 carried over from the part before).
no.	target	reagent no.	robust z-score, replicate 1	robust z-score, replicate 2	robust z-score, replicate 3
22	GPRC5B	1	0.0548	-0.566	0.0203
23	HEATR4	1	1.68	1.81	1.44
24	RPL6P31	1	-1.55	-1.59	-1.45
25	RFXANK	1	0.0087	0.0563	-0.424
26	PLCH2	1	1.47	0.36	-0.0483
27	GSDMB	1	-0.741	0.56	-1.37
28	LOC389801 (retired record)	1	1.35	1.92	0.583
29	EMC2	1	0.0598	2.2	0.246
30	APBB1	1	0.989	-0.475	-0.25
31	LOC442565 (retired record)	1	-1.75	-1.44	-0.205
32	SHLD1	1	-0.919	-1.27	-0.131
33	STAM	1	1.28	0.764	0.466
34	FLCN	1	-1.58	-1.57	-0.842
35	CD3G	1	0.389	-0.764	0.429
36	FAM117A	1	-0.888	-0.97	-0.783
37	RABL2B	1	0.462	0.817	-0.185
38	KNDC1	1	0.455	0.123	0.186
39	DBX2	1	1.05	0.584	-0.668
40	LOC440869 (retired record)	1	-0.891	1.75	0.924
41	WDR76	1	0.0903	-0.592	-1.17
42	MRPL20	1	-2.51 (active)	-2.75	-1.08
43	USB1	1	-1.17	-1.24	-1.24
44	OGFR	1	0.0709	0.891	-0.118
45	TBC1D5	1	-0.763	-1.06	0.48
46	GLIDR	1	0.185	0.146	0.298
47	LOC439946 (retired record)	1	-0.646	-0.238	-0.0599
48	ATP6V1G1	1	-0.293	-0.321	-0.594
49	SHMT2	1	-0.369	-0.18	0.256
50	ARHGEF38	1	1.03	0.969	0.619
51	ARHGEF38	2	-0.0581	0.297	0.956
52	SEPTIN8	1	-0.412	-1.44	-1.18
53	ASTN2	1	2.66 (active)	0.372	2.26
54	MAGEL2	1	0.643	0.659	-1.8
55	PEAK3	1	-1.64	-1.12	-1.64
56	API5	1	4.25 (active)	1.34	2.78
57	SSBP1	1	-0.745	-0.524	-0.23
58	TICAM2	1	-0.568	-0.0147	-0.219
59	PRDM10	1	-1.04	-1.46	-1.75
60	L3MBTL4	1	1.67	1.46	1.53
61	SFRP1	1	0.136	0.215	-0.755
62	IFI27L1	1	-0.361	-0.781	-0.908
63	AREL1	1	-1.37	0.979	0.347
64	SRRD	1	-0.494	0.102	-0.495
65	LINC01498	1	1.58	1.99	1.6
66	OR10S1	1	0.589	-0.16	-0.289
67	GUCY2GP	1	-1.08	-0.808	-0.912
68	RIMS3	1	0.321	-0.264	1.91
